In the test the target is Protein phosphatase-1 (PP1) (human (endogenous in SH-SY5Y)). Put plainly: co-IP; lysates of SH-SY5Y cells expressing DARPP-32 WT or the T153A mutant, with or without Aβ oligomer (1 μM, 24 h); immunoprecipitation with anti-PP1 antibody followed by Western blot.

Positions count from the first letter of the chain named. Numbers in names are those of the source. No constants are given. Whether binding was seen depends on the method and setting. In cells and extracts the contact can be indirect. Binding calls can cover weak binding; strength is not graded here.

B1: DARPP-32 WT (dopamine- and cAMP-regulated phosphoprotein 32 kDa) (protein, UniProt Q9UD71 1-204)
chain: MDPKDRKKIQFSVPAPPSQLDPRQVEMIRRRRPTPAMLFRLSEHSSPEEEASPHQRASGEGHHLKSKRPNPCAYTPPSLKAVQRIAESHLQSISNLNENQASEEEDELGELRELGYPREEDEEEEEDDEEEEEEEDSQAEVLKVIRQSAGQKTTCGQGLEGPWERPPPLDESERDGGSEDQVEDPALSEPGEEPQRPSPSEPGT
On to B1, for which the binding result is recorded as “binds”.

B2: DARPP-32 T153A mutant (protein, UniProt Q9UD71 1-204)
chain: B1 chain with T153A
Turning to B2, the binding entry is reported as “binds”.

Values taken from PMC4568975.
